In PMC7982423:
Results are given in words; binding and its absence hold for the method and conditions named. Binding seen in cells or lysates may run through a third protein. These calls come from enrichment with a bait or labelling near it, and not all partners need be listed. For part of these data: No binding means not detected with the bait. Where a sequence is shown, tags or fusion partners need not be part of it. Values belong to the molecule of their own block, whether it stands above or below them.

By UniProt entry, the sequences of proteins in these tests, tags left out. Residues count along the entry.
UniProt P31041, residues 20-218: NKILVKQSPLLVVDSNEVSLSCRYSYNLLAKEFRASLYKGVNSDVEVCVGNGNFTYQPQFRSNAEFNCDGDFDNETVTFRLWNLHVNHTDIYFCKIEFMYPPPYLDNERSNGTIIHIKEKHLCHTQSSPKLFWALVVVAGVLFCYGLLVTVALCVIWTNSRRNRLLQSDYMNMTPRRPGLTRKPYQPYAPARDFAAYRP
UniProt Q9Z1S8: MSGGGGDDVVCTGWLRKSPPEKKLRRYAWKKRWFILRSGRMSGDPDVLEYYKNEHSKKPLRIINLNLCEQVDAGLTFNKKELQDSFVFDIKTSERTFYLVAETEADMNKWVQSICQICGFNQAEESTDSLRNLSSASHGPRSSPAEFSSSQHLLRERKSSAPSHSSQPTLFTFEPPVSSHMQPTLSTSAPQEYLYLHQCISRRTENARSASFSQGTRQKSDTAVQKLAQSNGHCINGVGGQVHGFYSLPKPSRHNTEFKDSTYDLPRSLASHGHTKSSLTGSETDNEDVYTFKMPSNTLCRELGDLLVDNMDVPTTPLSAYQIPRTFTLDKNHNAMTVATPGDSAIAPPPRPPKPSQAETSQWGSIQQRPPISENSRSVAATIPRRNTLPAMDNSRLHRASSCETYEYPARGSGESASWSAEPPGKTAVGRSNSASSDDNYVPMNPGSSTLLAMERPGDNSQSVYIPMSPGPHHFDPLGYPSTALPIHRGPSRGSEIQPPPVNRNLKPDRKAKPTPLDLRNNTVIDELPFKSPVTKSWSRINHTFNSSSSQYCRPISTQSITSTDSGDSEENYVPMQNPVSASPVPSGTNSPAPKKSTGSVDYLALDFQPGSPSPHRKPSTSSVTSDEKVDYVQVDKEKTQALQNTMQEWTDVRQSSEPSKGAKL
UniProt Q60631: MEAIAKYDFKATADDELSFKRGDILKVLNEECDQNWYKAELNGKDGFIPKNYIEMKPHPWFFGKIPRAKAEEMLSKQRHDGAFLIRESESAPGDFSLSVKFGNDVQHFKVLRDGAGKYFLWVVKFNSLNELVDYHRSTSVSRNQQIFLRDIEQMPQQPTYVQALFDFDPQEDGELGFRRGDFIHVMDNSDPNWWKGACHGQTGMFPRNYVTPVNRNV
UniProt Q64339, residues 1-155: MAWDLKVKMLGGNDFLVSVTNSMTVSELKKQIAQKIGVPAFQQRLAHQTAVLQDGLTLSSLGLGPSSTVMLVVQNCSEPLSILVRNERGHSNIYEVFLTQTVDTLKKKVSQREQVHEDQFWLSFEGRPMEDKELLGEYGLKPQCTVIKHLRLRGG
UniProt Q8R550: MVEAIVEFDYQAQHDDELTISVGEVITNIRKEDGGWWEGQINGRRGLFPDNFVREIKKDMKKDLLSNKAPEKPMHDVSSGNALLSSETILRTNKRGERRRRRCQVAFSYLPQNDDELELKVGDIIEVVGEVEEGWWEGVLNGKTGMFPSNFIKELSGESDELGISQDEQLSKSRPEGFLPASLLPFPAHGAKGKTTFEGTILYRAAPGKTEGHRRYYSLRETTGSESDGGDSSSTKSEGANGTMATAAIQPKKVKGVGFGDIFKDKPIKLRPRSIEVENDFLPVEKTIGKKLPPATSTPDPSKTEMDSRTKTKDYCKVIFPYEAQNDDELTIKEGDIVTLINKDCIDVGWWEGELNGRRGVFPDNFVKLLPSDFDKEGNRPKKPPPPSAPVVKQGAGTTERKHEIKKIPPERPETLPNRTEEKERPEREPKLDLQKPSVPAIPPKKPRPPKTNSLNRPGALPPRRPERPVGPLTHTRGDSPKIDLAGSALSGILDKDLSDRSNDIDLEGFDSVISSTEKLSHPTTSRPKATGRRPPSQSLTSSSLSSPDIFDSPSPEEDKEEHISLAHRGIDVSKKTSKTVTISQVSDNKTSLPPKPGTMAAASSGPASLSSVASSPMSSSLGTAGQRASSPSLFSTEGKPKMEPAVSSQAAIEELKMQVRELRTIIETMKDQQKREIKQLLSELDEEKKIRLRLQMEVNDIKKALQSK
UniProt F8VQ29: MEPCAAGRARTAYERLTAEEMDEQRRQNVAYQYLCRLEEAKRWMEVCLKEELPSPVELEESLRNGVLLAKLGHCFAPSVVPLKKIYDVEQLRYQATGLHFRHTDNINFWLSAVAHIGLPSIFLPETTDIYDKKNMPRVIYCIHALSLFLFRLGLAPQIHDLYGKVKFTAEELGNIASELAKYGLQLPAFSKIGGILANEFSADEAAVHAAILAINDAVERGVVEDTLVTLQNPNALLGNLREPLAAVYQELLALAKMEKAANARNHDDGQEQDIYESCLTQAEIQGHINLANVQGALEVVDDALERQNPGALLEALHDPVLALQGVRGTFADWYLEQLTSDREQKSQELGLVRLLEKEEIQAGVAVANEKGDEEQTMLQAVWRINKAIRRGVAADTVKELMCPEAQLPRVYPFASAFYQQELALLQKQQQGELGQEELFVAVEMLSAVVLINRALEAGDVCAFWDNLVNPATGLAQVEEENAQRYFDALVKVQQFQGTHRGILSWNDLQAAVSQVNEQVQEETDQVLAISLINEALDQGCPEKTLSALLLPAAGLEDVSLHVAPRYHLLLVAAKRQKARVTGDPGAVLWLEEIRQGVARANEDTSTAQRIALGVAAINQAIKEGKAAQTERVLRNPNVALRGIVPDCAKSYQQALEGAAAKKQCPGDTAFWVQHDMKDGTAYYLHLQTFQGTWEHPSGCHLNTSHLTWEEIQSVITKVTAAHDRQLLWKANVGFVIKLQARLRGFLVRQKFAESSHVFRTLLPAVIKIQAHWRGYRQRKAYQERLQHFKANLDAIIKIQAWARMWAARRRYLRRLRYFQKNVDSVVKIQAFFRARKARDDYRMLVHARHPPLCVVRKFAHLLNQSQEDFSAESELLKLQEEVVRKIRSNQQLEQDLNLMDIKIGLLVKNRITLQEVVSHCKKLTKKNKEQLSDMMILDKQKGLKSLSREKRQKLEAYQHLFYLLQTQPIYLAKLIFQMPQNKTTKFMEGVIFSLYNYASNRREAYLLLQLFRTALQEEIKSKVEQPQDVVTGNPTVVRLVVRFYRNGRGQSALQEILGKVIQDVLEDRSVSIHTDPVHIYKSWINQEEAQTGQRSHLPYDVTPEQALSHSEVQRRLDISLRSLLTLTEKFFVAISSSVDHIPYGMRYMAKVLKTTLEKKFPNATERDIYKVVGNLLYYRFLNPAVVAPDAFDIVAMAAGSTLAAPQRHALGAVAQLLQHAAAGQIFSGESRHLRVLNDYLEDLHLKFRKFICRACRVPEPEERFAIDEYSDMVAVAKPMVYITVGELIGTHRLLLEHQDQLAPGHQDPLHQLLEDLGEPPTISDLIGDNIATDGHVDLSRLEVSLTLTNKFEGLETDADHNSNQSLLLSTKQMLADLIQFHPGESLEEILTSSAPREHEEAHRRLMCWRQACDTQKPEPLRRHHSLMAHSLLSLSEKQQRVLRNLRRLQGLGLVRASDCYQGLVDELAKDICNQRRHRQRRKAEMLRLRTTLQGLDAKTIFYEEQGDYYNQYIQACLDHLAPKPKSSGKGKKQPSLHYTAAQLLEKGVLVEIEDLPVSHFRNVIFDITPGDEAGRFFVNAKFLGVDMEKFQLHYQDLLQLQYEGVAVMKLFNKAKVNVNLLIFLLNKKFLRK
UniProt O08908: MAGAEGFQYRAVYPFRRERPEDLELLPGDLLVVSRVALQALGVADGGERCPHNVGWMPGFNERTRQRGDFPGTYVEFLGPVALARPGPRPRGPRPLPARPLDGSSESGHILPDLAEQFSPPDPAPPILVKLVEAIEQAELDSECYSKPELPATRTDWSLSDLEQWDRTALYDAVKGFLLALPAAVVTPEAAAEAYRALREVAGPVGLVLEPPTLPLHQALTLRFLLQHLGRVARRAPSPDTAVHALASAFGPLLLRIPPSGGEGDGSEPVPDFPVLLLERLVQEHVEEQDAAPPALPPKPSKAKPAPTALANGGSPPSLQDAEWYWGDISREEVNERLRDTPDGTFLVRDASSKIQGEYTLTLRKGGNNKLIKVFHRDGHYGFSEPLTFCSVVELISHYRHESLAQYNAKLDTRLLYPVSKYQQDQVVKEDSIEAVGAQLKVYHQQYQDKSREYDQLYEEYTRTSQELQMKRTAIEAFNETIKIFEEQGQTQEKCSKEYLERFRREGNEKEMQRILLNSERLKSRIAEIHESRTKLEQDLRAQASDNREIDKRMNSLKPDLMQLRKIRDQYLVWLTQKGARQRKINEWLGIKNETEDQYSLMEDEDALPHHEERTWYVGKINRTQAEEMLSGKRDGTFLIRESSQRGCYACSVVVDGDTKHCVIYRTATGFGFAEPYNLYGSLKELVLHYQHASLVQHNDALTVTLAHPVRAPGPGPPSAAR

How the values were obtained:
[1] = target: T1, p110δ with a C-terminal AviTag (p110δ-AviTag) (mouse) (UniProt O35904); assay: affinity purification with mass spectrometry; streptavidin beads capture biotinylated p110δ-AviTag from lysates of naive CD4+ T cells stimulated for 1 min by CD3-CD4-crosslinking (unstimulated cells compared); control purifications from BirA^Tg cells; TMT-labelled nLC-MS/MS, three independent experiments; specific: >1.5-fold enriched, p < 0.05 and not classed as non-specific in blasts
T1 sequence (chain, biotin on the AviTag (biotinylated in vivo by BirA)): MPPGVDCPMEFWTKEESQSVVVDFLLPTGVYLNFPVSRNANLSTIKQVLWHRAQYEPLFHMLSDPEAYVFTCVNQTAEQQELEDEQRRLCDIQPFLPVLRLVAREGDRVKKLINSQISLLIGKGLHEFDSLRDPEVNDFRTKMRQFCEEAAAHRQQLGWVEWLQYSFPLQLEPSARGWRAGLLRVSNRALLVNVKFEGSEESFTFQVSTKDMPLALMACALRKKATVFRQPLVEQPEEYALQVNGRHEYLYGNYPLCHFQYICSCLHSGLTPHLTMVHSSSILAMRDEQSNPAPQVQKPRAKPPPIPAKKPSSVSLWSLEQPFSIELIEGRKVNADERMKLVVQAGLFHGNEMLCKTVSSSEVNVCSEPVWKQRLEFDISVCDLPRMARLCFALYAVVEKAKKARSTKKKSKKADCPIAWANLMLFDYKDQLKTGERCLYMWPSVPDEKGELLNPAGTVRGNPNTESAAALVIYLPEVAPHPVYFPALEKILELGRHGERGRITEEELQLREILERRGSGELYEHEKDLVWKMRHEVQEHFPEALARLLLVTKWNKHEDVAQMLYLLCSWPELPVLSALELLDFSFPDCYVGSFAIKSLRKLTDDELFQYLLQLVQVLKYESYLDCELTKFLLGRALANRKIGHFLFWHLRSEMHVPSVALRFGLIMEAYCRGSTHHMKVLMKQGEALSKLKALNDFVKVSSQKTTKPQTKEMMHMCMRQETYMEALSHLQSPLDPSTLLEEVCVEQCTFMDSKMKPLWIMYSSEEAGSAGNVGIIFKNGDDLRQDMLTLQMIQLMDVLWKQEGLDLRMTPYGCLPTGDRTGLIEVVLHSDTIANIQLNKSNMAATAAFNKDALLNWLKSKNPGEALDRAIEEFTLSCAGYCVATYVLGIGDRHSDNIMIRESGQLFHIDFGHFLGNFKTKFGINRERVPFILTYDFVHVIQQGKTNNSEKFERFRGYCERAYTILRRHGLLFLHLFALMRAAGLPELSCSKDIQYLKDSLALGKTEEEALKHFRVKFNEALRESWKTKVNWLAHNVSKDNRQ

[2] = target: T1, p110δ with a C-terminal AviTag (p110δ-AviTag) (mouse); assay: affinity purification with mass spectrometry; streptavidin beads capture biotinylated p110δ-AviTag from lysates of CD4+ T cell blasts stimulated for 1 min by CD3-CD4-crosslinking (unstimulated cells compared); control purifications from BirA^Tg cells; TMT-labelled nLC-MS/MS, three independent experiments; specific: >1.5-fold enriched, p < 0.05
[3] = target: T1, p110δ with a C-terminal AviTag (p110δ-AviTag) (mouse); assay: affinity purification with mass spectrometry; as a3, CD4+ T cell blasts left unstimulated
[4] = target: T1, p110δ with a C-terminal AviTag (p110δ-AviTag) (mouse); assay: affinity purification with mass spectrometry; as a8, naive CD4+ T cells left unstimulated

Molecule: CD28 (co-stimulatory receptor) (from UniProt P31041 20-218)
- binding [2]: no binding

Molecule: CBL (E3 ligase and adaptor) (from UniProt P22682 1-913)
- binding [3]: no binding (only cells without TCR stimulation)
- binding [1]: binds
- binding [4]: no binding (only cells without TCR stimulation)
- binding [2]: binds

Molecule: GAB2 (Gab-family adaptor protein) (from UniProt Q9Z1S8 1-665)
- binding [3]: no binding (only cells without TCR stimulation)
- binding [2]: binds

Molecule: GRB2 (adaptor protein) (from UniProt Q60631 1-217)
- binding [3]: no binding (only cells without TCR stimulation)
- binding [1]: binds
- binding [4]: no binding (only cells without TCR stimulation)
- binding [2]: binds

Molecule: SHP-2 (protein phosphatase) (from UniProt P35235 1-593) (enzyme)
- binding [3]: no binding (only cells without TCR stimulation)
- binding [1]: binds
- binding [4]: no binding (only cells without TCR stimulation)
- binding [2]: binds

B1: JAML (transmembrane glycoprotein, co-receptor) (receptor, UniProt Q80UL9 21-379)
chain: QGLPGLTVSSPQLRVHVGESVLMGCVVQRTEEKHVDRVDWLFSKDKDDASEYVLFYYSNLSVPTGRFQNRSHLVGDTFHNDGSLLLQDVQKADEGIYTCEIRLKNESMVMKKPVELWVLPEEPKDLRVRVGDTTQMRCSIQSTEEKRVTKVNWMFSSGSHTEEETVLSYDSNMRSGKFQSLGRFRNRVDLTGDISRNDGSIKLQTVKESDQGIYTCSIYVGKLESRKTIVLHVVQDEFQRTISPTPPTDKGQQGILNGNQLVIIVGIVCATFLLLPVLILIVKKAKWNKSSVSSMASVKSLENKEKINPEKHIYSSITTWETTERGISGESEGTYMTMNPVWPSSPKASSLVRSSVRSK
- binding [2]: binds

More lines, main results first:

- binding [1]: binds
- binding [2]: binds
Molecule: ISG15 (from UniProt Q64339 1-155)

- binding [1]: binds
- binding [2]: binds
Molecule: SH3KBP1 (adaptor protein) (from UniProt Q8R550 1-709)

- binding [2]: binds
Molecule: IQGAP3 (adaptor protein) (from UniProt F8VQ29 1-1632)

- binding [1]: binds
- binding [2]: binds
Molecule: p85β (PI3K regulatory subunit) (from UniProt O08908 1-722)

- binding [1]: binds
- binding [2]: binds
B2: DIAPH2 (formin) (protein, UniProt O70566 1-1098)
chain: MEELGAAASGAGGGGGGGEEHGGGRSNKRGAGNRAANEEETRNKPKLRDRITSFRKSATKREKPVIQHSIDYQTAVVEIPPALIVHDDRSLILSEKEVLDLFEKMMEDMNLNEEKKAPLRKKDFSIKREMVVQYISATSKSIVGSKVLGGLKNSKHEFTLSSQEYVHELRSGISDEKLLNCLESLRVSLTSHPVSWVNNFGYEGLGVLLDVLEKLLDKKQQENIDKKNQYKVIQCLKAFMNNKFGLQRILGDERSLLLLARAIDPKQQNMMTEIVKILSAICIVGEENILDKLLGGITAAAELNNRERFSPIVEGLENNEALHLQVACMQFINALVTSPYDLDFRIHLRNEFLRCGLKAMLPTLKEIENEGLDIQLRVFEENKEDDLSELSHRLNDIRAEMDDINEVYHLLYNMLKDTAAEPYLLSILQHFLLIRNDYYIRPQYYKIIEECVSQIVLHCSGMDPDFKYRQRIDFDFTHLLDACVNKAKVEENEQKAMEFSKKFDEEFTARQEAQAELQKRDEKIKELETEIQQLRGQGVPSAIPGPPPPPPLPGAGPCPPPPPPPPPPPPLPGVVPPPPPPLPGMPGIPPPPPPPLSGVPPPPPPPGGVFPLLSGPIELPYGMKQKKLYKPDIPMKRINWSKIEPKELSENCVWLKLKEEKYENADLFAKLALTFPSQMKGQRNTEAAEENRSGPPKKKVKELRILDTKTAQNLSIFLGSYRMPYEEIKNIILEVNEEMLSEALIQNLVKYLPDQNALRELAQLKSEYDDLCEPEQFGVVMSTVKMLRPRLTSILFKLTFEEHVNNIKPSIIAVTLACEELKKSESFKRLLELILLVGNYMNSGSRNAQSLGFKINFLCKIKDTKSADQKSTLLHFLAEICDEKYRDILKFPDELEHVESAGKVSAQILKSNLVAMEQSILHLEKNIKNFPPAESHHDKFVEKMMSFTQNAREQYDKLSTMHSNMLKLYESLGEYFIFDPNTVNMEEFFGDLNTFRTLFLEALKENHKRKEMEEKSRRAKLAKEKAEQEKLERQKKKKQLIDINKEGDETGVMDNLLEALQSGAAFRDRRKRIPRNPDNRRPPLERSRSRHNGAMSSK

- binding [2]: binds
B3: ICOS (co-stimulatory receptor) (receptor, UniProt Q9WVS0 21-200)
chain: EINGSADHRMFSFHNGGVQISCKYPETVQQLKMRLFREREVLCELTKTKGSGNAVSIKNPMLCLYHLSNNSVSFFLNNPDSSQGSYYFCSLSIFDPPPFQERNLSGGYLHIYESQLCCQLKLWLPVGCAAFVVVLLFGCILIIWFSKKKYGSSVHDPNSEYMFMAAVNTNKKSRLAGVTS
- binding [3]: no binding (only cells without TCR stimulation)

- binding [1]: binds
- binding [2]: binds
B4: IRS2 (adaptor protein) (protein, UniProt P81122 1-1321)
chain: MASAPLPGPPASAGGDGPNLNNNNNNNNHSVRKCGYLRKQKHGHKRFFVLRGPGTGGDEASAAGGSPPQPPRLEYYESEKKWRSKAGAPKRVIALDCCLNINKRADAKHKYLIALYTKDEYFAVAAENEQEQEGWYRALTDLVSEGRSGEGGSGTTGGSCSASLPGVLGGSAGAAGCDDNYGLVTPATAVYREVWQVNLKPKGLGQSKNLTGVYRLCLSARTIGFVKLNCEQPSVTLQLMNIRRCGHSDSFFFIEVGRSAVTGPGELWMQADDSVVAQNIHETILEAMKALKELFEFRPRSKSQSSGSSATHPISVPGARRHHHLVNLPPSQTGLVRRSRTDSLAATPPAAKCTSCRVRTASEGDGGAAGGAGTAGGRPMSVAGSPLSPGPVRAPLSRSHTLSAGCGGRPSKVTLAPAGGALQHSRSMSMPVAHSPPAATSPGSLSSSSGHGSGSYPLPPGSHPHLPHPLHHPQGQRPSSGSASASGSPSDPGFMSLDEYGSSPGDLRAFSSHRSNTPESIAETPPARDGSGGELYGYMSMDRPLSHCGRPYRRVSGDGAQDLDRGLRKRTYSLTTPARQRQVPQPSSASLDEYTLMRATFSGSSGRLCPSFPASSPKVAYNPYPEDYGDIEIGSHKSSSSNLGADDGYMPMTPGAALRSGGPNSCKSDDYMPMSPTSVSAPKQILQPRLAAALPPSGAAVPAPPSGVGRTFPVNGGGYKASSPAESSPEDSGYMRMWCGSKLSMENPDPKLLPNGDYLNMSPSEAGTAGTPPDFSAALRGGSEGLKGIPGHCYSSLPRSYKAPCSCSGDNDQYVLMSSPVGRILEEERLEPQATPGAGTFGAAGGSHTQPHHSAVPSSMRPSAIGGRPEGFLGQRCRAVRPTRLSLEGLQTLPSMQEYPLPTEPKSPGEYINIDFGEAGTRLSPPAPPLLASAASSSSLLSASSPASSLGSGTPGTSSDSRQRSPLSDYMNLDFSSPKSPKPSTRSGDTVGSMDGLLSPEASSPYPPLPPRPSTSPSSLQQPLPPAPGDLYRLPPASAATSQGPTAGSSMSSEPGDNGDYTEMAFGVAATPPQPIVAPPKPEGARVASPTSGLKRLSLMDQVSGVEAFLQVSQPPDPHRGAKVIRADPQGGRRRHSSETFSSTTTVTPVSPSFAHNSKRHNSASVENVSLRKSSEGSSTLGGGDEPPTSPGQAQPLVAVPPVPQARPWNPGQPGALIGCPGGSSSPMRRETSVGFQNGLNYIAIDVRGEQGSLAQSQPQPGDKNSWSRTRSLGGLLGTVGGSGASGVCGGPGTGALPSASTYASIDFLSHHLKEATVVKE
- binding [4]: no binding (only cells without TCR stimulation)
